Measured values reported in patent publication US20230303682A1.
Substitutions are numbered along the chain they refer to. These are yes or no findings as the source states them, for the method shown.

Chains of the proteins cited; added tags and fusions are not shown. Lines headed by an entry give the natural chain unless they say otherwise; changes in a name come on top.
UniProt Q99466: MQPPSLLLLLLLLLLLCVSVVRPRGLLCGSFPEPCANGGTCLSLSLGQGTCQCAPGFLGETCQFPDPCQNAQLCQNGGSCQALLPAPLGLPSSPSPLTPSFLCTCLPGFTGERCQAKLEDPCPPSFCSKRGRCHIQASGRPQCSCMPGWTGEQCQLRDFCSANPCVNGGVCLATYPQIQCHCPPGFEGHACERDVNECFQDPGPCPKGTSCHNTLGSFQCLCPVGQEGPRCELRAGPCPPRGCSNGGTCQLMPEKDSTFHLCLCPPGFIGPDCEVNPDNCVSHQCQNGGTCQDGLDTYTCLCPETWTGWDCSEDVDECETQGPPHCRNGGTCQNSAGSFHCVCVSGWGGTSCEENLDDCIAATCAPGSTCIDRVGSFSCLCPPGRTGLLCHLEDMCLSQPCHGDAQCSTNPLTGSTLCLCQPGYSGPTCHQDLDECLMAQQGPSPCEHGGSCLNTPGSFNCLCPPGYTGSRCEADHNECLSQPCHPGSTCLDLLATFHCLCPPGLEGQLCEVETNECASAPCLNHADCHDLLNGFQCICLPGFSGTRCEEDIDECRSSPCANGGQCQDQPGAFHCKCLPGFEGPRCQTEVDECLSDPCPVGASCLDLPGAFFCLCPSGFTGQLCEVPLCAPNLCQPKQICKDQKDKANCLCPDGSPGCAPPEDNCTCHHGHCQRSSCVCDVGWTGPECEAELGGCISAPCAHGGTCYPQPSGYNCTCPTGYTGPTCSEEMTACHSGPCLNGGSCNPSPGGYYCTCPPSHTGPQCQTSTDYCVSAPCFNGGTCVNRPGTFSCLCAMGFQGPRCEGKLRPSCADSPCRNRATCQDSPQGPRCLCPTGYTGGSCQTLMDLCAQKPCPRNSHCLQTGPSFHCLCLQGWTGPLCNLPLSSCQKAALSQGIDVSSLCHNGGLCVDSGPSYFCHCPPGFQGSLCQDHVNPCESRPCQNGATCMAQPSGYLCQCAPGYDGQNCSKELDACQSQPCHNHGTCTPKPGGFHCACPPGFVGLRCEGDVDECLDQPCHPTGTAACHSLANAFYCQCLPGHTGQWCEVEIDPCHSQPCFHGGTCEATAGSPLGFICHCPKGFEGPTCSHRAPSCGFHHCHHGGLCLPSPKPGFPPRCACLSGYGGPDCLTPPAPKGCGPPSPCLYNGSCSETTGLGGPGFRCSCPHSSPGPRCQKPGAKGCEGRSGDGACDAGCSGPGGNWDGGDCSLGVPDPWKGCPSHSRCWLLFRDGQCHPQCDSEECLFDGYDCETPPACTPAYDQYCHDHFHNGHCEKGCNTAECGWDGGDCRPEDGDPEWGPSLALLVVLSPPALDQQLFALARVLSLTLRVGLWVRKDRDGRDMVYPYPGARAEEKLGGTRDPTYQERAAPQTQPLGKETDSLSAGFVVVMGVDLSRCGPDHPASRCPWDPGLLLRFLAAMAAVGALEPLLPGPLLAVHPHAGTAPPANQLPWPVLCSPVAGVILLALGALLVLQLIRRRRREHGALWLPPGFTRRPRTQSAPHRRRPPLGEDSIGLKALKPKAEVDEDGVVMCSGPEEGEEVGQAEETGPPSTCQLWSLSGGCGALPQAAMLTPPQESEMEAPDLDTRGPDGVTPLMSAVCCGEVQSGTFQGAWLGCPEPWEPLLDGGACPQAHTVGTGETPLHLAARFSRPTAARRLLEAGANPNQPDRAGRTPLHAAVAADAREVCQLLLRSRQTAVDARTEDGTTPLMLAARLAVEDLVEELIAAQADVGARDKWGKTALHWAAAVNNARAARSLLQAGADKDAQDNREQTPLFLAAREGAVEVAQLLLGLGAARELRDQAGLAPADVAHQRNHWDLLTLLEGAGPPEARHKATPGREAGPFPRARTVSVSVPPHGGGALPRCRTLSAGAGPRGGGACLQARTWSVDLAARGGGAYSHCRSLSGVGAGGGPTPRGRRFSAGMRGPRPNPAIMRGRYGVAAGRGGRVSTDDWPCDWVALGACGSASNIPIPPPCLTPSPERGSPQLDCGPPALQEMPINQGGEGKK

B1: hu1B2.v101 (antibody, V domains shown)
VH: EVQLVESGGGLVQPGGSLKLSCAVSGFTFSDFYMEWVRQASGKGLEWVAAQRNKANDFSIVYSASVKDRFTISRDDSKSTLYLQMNSLKTEDTAVYYCSRDGGRWGLDAWGQGTLVTVSS
VL: DIQMTQSPSSVSASVGDRVTITCQTSEDIYSGLAWYQQKPGKSPKLLIYGASRLQDGVPSRFSGSGSGTDYTLTISSLQPEDFATYYCQQGFKYPLTFGGGTKVEIK
B2: hu1B2.v104 (antibody, V domains shown)
VH: B1 VH with R104K, W105L, G106A
VL: B1 VL
B3: hu1B2.v102 (antibody, V domains shown)
VH: B1 VH with W105L, G106A
VL: B1 VL
B4: hu1B2.v103 (antibody, V domains shown)
VH: B1 VH with R104K
VL: B1 VL

molecular target: human Notch4 (human) (UniProt Q99466); experiment: SPR

binding | Binder
no binding | B1
no binding | B2
no binding | B3
no binding | B4
